## Results of single-concentration screens

Protein sequences, listed by entry. Tags and fused reporters are not part of them.
UniProt P9WPC5, whole entry: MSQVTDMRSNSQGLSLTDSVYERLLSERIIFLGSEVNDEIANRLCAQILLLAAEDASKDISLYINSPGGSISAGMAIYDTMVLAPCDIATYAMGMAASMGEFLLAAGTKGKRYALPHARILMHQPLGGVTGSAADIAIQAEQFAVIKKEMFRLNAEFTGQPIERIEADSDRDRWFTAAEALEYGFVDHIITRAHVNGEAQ
UniProt P9WPC3, whole entry partner: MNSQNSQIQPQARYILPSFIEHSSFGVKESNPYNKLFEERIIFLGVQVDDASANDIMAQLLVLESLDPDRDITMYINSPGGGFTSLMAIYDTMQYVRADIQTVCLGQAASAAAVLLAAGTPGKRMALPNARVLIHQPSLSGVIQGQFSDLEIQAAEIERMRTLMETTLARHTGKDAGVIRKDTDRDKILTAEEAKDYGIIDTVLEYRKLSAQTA

Toxoplasma: 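Assay of Toxoplasma gondii numbers, read through their beta-galactosidase reporter with a colour substrate. Concentration: 10 µM. Higher reads as fewer parasites (inferred from which compounds were picked for retests). About 67,000 compounds were tested under these conditions; 0.38% (about 260) showed 50% or more at least once.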
ClpP1P2: 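ClpP1P2, Mycobacterium tuberculosis (UniProt P9WPC5 and UniProt P9WPC3). Protease assay of ClpP1P2, read by the AMC dye that it sets free. Tested at 50 µM. Direction is inferred from only a few compounds that gave an IC50; most scored high, so higher reads as stronger inhibition. Most other retested compounds had strongly negative values. About 69,000 compounds were tested under these conditions; 0.015% (about 10) showed 50% or more at least once.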

Each number is a percent effect as filed.
The record does not define 0% and 100%; most values in the screen are far below 50% and negative numbers occur (in some assays of this library far below -100).
This is an unselected part of the compounds tested.
A dash means the value is not listed here; it may have been measured.

| compound | Toxoplasma | ClpP1P2 |
|---|---|---|
| `CN(C)CC(=O)N1CCC2(CC1)CN(c1ccsc1)C(=O)CO2` | - | 4.095% |
| `CC(C)CN1C(=O)C2(CCN(Cc3nccs3)C2)c2ccccc21` (stereo unspecified) | - | -14.84% |
| `Cc1cc(CNC(=O)CC2CN(C(=O)OC(C)(C)C)C2)ccc1F` | 13.32% | -17.12% |
| `COc1cccc(C2(C(=O)NC3CCc4nccn4C3)CCCC2)c1` (stereo unspecified) | 4.651% | 0.2029% |
| `CN(C)Cc1ccnc(C2CCCN2Cc2cc[nH]n2)n1` (stereo unspecified) | 7.239% | -4.366% |
| `Cc1nc(CN2CCCC(N(C)CC(=O)Nc3cccnc3)C2)no1` (stereo unspecified) | -7.759% | 5.722% |
| `O=C(NC1CCCc2c1[nH]c1ccc(F)cc21)c1n[nH]c2c1CCC2` (stereo unspecified) | - | -8.866% |
| `Cc1ccc2c(c1)c(C)cc(=O)n2CCC#N` | -1.919% | 26.5% |
| `CNC(=O)C1(N2CCC[C@H]2C(=O)NC2CC2)CCCCC1` | - | -12% |
| `O=C(c1ccccc1F)N1CC2(CCNCC2)c2cc(Cl)ccc21` | - | -2.131% |
| `O=C1CCC[C@]2(CN(S(=O)(=O)C3CCCCC3)C[C@H]2c2cccnc2)N1` | 0.9044% | -19.7% |
| `CC(C)C1=NOC2(CCN(C(=O)C3CCCC3)CC2)C1` | -4.094% | -8.373% |
| `Cc1cc(NC(=O)c2ccc(F)cc2Cl)n(C)n1` | 4.835% | 6.88% |
| `O=C1CCc2cc(OCCN3CCc4cncnc4C3)ccc2N1` | 13.68% | -1.656% |
| `[H][C@]12CC[C@]([H])(CN(S(=O)(=O)N(C)C)C1)N(C(=O)c1cc(C(C)C)oc1C)C2` | -7.892% | - |
| `[H][C@]12CC[C@]([H])(CN(C(=O)Cn3c(C)cc(C)nc3=O)C1)N(CC1CCC1)C2` | 13.15% | - |
| `COCCNC(=O)NCCCOC1CCCc2ccccc21` (stereo unspecified) | 2.949% | -5.772% |
| `COCC(=O)N1CCN(CCn2cccn2)c2nc(C)ccc2C1` | - | -6.896% |
| `O=C(O)C(F)(F)F.[H][C@]12OCCC[C@]1([H])N(C(=O)c1ccc(C)o1)C[C@H]2OCc1cccnc1` | 9.028% | - |
| `Cc1ccc(NCc2ccco2)cc1N1CCOC1=O` | -26.65% | -6.426% |
| `COCCN1C[C@@H]2OCCN(c3ccnc(N(C)C)n3)[C@@H]2C1` | - | 24.58% |
| `O=C(c1ccc(-c2cccc3c2CCNC3)o1)N1CCCC1` | -18.94% | -7.487% |
| `CCn1cnnc1CNC(=O)N1CCN(c2cccs2)CC1` | 6.67% | 7.631% |
| `[H][C@@]12CCCO[C@]1([H])[C@H](OCc1cccnc1)CN2C(=O)c1ccc(C)o1` | -0.7476% | - |
| `O=C(O)C(F)(F)F.[H][C@@]12CC(=O)N(CCN(C)C)[C@@]1([H])CCN2S(=O)(=O)c1ccccc1` | -4.354% | - |
| `CNC(=O)[C@@H](c1ccccc1OC)N1CCC[C@H]1C(=O)NC1CC1` | - | -13.83% |
| `O=C(NCCc1csc(-c2cnccn2)n1)c1cnn[nH]1` | 3.474% | -5.799% |
| `CC(NC(=O)COCC(F)(F)F)c1nnc2n1CCCCC2` (stereo unspecified) | -27.96% | 12.32% |
| `Cc1ccc(S(=O)(=O)N2CCC(O)(CN(C)C)C2)cc1` (stereo unspecified) | -8.934% | 18.25% |
| `Cc1cc(C2CCC2)nc(N2CCN(Cc3nccn3C)CC2)n1` | -12.19% | -4.239% |
| `Cc1nc(C2CCN(C(=O)c3cccnc3)CC2)c2sccn12` | 2.37% | -6.68% |
| `CNC(=O)CNC(=O)Nc1ccc(Br)c(F)c1` | 1.578% | -1.77% |
| `CC1=N[C@@]2(CC[C@@H]3CN(C(=O)NCc4ccccc4C)C[C@@H]32)C(=O)N1` | - | 9.205% |
| `c1csc(-c2noc(COCC3CCCO3)n2)c1` (stereo unspecified) | -0.7587% | 10.76% |
| `CN(C)C(C(=O)N1CCN(CCn2cccc2)CC1)c1cccc(F)c1` (stereo unspecified) | -11.3% | -0.8536% |
| `CC(O)CN(C(=O)NC1CCN(CC2CCCCC2)CC1)C(C)C` (stereo unspecified) | 11.8% | -1.427% |
| `CO[C@H]1CN(Cc2ccccc2F)[C@@H]2CCCO[C@H]12` | - | -0.7961% |
| `O=C(CCc1ccc(OC(F)(F)F)cc1)N1CCCS1(=O)=O` | -0.911% | 0.1245% |
| `CC(=O)N1CCC2(CC1)CC(NC(=O)N(C)C)c1cc(C)ccc12` (stereo unspecified) | 7.298% | -22.02% |
| `CNC(=O)CN(C(=O)c1ccc(SC)o1)c1cccc(F)c1` | -23.84% | -13.21% |
| `COCCN1CCC2(CCCN(C(=O)c3cncn3C)C2)CC1.O=C(O)C(F)(F)F` | -3.138% | - |
| `O=C(O)C(F)(F)F.O=C(O)C(F)(F)F.O=C(O)C(F)(F)F.[H][C@@]12CCC(=O)N(Cc3cccc(C)n3)[C@]1([H])CCN2Cc1cccnc1` | 7.344% | - |
| `Cl.Cn1nc(C2CCCN(Cc3cccc(F)c3)C2)c2nccnc21` (stereo unspecified) | 7.623% | - |
| `O=C(Cn1nc2c(cc1=O)CCCC2)N[C@@H](Cc1ccccc1)C(=O)O` | -0.9564% | 14.28% |
| `O=C(NCC1(O)CCC1)c1cccc(-n2cccn2)c1` | -0.6408% | -7.526% |
| `Cc1ncc(S(C)(=O)=O)c(N2Cc3ccccc3C2)n1` | -10.32% | 7.223% |
| `CCc1ncncc1C(=O)N1CCCN(Cc2ccc(C#N)cc2)CC1` | -8.996% | -1.039% |
| `O=C(C1CCOCC1)N1CCc2ncnc(-c3ccccc3)c2CC1` | 3.325% | -6.28% |
| `CN(C)c1ncc(C2Nc3ccccc3C3=NCCCN32)cn1.Cl` (stereo unspecified) | 16.1% | - |

The first 5 entries again:

compound,Toxoplasma,ClpP1P2
CN(C)CC(=O)N1CCC2(CC1)CN(c1ccsc1)C(=O)CO2,-,4.095%
CC(C)CN1C(=O)C2(CCN(Cc3nccs3)C2)c2ccccc21 (stereo unspecified),-,-14.84%
Cc1cc(CNC(=O)CC2CN(C(=O)OC(C)(C)C)C2)ccc1F,13.32%,-17.12%
COc1cccc(C2(C(=O)NC3CCc4nccn4C3)CCCC2)c1 (stereo unspecified),4.651%,0.2029%
CN(C)Cc1ccnc(C2CCCN2Cc2cc[nH]n2)n1 (stereo unspecified),7.239%,-4.366%

From ChEMBL document CHEMBL3988442, “University of Dundee, Small-Polar-MMV Screening Library” (2021).